# Inconclusive results, whose numbers are uncertain, are shown with a selection of clear calls. For part of these data: Potencies beside an inconclusive call are fits to weak or partial responses and may not hold up. Calls of active or inactive are those of the source. Unless noted, calls come from the whole dose curve; as a rule, active = well fitted curve in the direction sought with a large enough effect; inconclusive = small, poorly fitted or top-dose-only effect, or another doubt; inactive = no such curve, though single readings can be large; an effect the other way counts as inactive or inconclusive.
# By UniProt entry, the sequences of proteins in these tests, tags left out. Where a name states a change or a piece, a line headed by the entry shows the natural chain unless it says otherwise.
# UniProt Q8WZA2: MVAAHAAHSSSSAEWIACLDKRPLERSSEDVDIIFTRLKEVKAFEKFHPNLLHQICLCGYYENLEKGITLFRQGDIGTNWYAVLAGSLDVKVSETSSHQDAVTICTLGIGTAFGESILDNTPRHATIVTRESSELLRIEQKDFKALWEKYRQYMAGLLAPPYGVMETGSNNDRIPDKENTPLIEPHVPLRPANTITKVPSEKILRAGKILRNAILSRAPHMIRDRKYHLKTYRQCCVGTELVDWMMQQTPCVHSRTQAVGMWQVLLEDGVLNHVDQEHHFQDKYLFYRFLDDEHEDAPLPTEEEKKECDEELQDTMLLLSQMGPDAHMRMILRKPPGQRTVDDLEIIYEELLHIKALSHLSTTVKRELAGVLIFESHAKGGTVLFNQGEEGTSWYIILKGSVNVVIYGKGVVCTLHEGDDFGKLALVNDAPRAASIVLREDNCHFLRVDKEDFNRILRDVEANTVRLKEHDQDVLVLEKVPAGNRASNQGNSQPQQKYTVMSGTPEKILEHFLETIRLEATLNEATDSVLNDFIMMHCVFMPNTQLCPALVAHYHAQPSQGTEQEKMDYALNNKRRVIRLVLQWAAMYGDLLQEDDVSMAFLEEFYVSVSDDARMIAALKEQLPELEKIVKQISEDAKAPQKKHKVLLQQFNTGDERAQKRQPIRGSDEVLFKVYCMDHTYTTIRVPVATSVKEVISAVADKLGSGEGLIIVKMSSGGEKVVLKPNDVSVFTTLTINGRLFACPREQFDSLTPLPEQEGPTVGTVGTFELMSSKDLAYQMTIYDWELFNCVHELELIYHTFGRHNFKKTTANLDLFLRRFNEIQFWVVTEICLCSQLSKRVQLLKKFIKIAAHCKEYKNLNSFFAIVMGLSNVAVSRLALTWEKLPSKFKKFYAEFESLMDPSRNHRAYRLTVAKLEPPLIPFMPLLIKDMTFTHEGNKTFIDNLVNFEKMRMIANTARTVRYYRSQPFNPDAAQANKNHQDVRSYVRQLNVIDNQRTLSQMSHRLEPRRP
# UniProt Q07343: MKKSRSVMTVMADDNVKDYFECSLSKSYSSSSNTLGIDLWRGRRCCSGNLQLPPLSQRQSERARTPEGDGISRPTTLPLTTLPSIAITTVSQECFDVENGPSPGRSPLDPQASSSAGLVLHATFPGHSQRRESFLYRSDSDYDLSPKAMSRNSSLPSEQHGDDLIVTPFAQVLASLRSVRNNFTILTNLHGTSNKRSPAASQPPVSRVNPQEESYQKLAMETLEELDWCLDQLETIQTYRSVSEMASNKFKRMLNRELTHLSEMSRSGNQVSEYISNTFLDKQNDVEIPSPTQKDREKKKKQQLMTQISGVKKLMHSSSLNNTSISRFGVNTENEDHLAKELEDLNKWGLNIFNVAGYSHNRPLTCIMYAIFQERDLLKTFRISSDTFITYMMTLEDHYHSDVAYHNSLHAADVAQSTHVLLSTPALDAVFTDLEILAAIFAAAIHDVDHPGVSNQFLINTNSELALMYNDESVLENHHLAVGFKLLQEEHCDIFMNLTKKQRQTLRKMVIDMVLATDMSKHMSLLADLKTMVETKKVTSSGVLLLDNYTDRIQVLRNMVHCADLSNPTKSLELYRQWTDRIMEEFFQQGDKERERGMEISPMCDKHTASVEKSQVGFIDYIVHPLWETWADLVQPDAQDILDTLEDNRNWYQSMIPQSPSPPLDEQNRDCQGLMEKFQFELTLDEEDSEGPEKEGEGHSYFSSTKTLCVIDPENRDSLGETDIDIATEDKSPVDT
# UniProt P11712, whole entry, looked up: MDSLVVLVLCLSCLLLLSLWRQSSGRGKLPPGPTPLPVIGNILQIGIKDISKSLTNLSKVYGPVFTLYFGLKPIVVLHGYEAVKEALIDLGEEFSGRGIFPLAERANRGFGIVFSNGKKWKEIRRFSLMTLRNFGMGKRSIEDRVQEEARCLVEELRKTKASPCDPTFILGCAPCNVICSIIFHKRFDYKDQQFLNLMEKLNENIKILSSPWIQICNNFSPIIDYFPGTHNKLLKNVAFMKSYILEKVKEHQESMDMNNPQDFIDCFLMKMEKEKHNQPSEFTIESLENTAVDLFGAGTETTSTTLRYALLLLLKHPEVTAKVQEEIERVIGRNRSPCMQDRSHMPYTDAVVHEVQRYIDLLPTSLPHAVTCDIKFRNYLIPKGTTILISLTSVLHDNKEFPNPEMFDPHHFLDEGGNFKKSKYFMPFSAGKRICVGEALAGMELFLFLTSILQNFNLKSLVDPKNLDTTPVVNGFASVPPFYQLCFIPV
# UniProt P33261, whole entry, looked up: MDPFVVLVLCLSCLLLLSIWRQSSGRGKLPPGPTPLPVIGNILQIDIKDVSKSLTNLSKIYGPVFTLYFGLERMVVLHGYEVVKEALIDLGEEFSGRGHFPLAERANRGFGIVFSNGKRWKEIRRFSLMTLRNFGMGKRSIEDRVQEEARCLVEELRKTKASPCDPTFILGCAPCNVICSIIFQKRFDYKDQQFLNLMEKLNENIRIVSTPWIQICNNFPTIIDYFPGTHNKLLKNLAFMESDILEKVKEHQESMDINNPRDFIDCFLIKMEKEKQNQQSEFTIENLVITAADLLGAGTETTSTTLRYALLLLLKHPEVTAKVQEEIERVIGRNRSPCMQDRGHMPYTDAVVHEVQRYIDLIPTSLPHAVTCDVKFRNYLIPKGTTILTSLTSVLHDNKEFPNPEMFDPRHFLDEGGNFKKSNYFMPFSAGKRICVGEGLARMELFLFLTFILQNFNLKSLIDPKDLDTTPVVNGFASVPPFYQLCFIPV
# UniProt Q9Y253: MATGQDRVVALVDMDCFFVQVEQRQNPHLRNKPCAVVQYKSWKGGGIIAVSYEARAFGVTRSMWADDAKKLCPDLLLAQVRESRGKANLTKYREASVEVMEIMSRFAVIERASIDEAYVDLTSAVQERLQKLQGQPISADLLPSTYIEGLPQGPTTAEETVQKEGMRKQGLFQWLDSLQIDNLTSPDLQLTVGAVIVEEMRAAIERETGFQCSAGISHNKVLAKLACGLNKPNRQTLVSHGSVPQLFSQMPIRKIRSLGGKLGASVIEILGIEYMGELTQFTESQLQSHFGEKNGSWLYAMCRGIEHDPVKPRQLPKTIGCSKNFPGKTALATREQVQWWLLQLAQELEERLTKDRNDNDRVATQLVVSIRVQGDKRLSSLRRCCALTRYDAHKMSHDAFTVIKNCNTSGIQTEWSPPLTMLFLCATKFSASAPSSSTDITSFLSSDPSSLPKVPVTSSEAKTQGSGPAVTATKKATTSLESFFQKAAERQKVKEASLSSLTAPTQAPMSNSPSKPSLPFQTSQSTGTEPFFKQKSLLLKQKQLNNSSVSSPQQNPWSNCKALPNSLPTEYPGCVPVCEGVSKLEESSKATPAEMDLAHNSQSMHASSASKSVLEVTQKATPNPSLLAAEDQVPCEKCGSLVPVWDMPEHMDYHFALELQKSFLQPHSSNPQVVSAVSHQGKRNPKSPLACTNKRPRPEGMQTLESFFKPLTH
# UniProt Q99816: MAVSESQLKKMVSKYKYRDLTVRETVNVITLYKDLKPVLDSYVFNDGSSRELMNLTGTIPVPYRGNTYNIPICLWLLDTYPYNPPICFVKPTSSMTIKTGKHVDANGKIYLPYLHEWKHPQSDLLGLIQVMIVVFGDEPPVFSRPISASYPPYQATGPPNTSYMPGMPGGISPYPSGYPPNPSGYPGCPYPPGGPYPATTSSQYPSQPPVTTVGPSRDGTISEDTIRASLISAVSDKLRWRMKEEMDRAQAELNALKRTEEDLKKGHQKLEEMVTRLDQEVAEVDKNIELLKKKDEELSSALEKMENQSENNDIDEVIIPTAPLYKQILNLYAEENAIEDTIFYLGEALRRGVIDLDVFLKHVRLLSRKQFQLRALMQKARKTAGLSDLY
# Columns and labels:
# [1] = target: Rap guanine nucleotide exchange factor 4 (Homo sapiens) (UniProt Q8WZA2); assay: Confirmatory qHTS for agonist of cAMP-regulated guanine nucleotide exchange factor 4 (EPAC2) (AID 1645884);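 note: nucleotide exchange releases bodipy-GDP from Rap1 and this lowers its fluorescence; nearly all actives have a fitted effect of over 65% in size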; for activation: % is set by controls: 0 for no effect and ±100 for the full control effect
# [2] = target: Rap guanine nucleotide exchange factor 4 (Homo sapiens) (UniProt Q8WZA2); assay: Confirmatory qHTS for antagonist of cAMP-regulated guanine nucleotide exchange factor 4 (EPAC2) (AID 1645885); details: activity change, negative = inhibition: at 12.7 µM (top of the series) unless noted; note: nearly all actives have a fitted effect of over 25% in size; for activity change, negative = inhibition: % is set by controls: 0 for no effect and ±100 for the full control effect
# [3] = target: Rap guanine nucleotide exchange factor 3 (Homo sapiens) (UniProt O95398); assay: Counterscreen qHTS for agonist of cAMP-regulated guanine nucleotide exchange factor 3 (EPAC1) (AID 1645889); details: EPAC1 Rap1B-BODIPY-GDP exchange, fluorescence; activation: at 154 µM (top of the series) unless noted; note: nearly all actives have a fitted effect of over 40% in size; for activation: % of control where 0% means no effect
# Method in brief: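 Rap1B–BODIPY-GDP (250 nM) with 50 uM GDP; compounds pin-transferred to 9.74 nM–152 uM final (activator) or from 7.32 nM upwards (inhibitor). Fluorescence Ex/Em 480/540 nm read at 5 and 30 min, then after adding cAMP or buffer, at room temperature.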
# [4] = target: Mitogen-activated protein kinase 10 (Mus musculus) (UniProt Q61831); assay: JNK3 AlphaScreen Assay (AID 530; active = well fitted curve in either direction with a large enough effect, not every such curve was filed as active; inconclusive = small, poorly fitted or top-dose-only effect, or another doubt;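 note: kinase came from lysate of stimulated human HepG2 cells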); details: JNK3 lysate, c-Jun phosphorylation; activity change, negative = inhibition: at 57.1 µM (top of the series)
# Method in brief: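 Activity was read by AlphaScreen after JNK3-containing HepG2 lysate (cytokine pre-activated) phosphorylated biotinylated GST-cJun with 10 uM ATP at room temperature. Phospho-Ser73 cJun antibody with Protein-A acceptor beads provided detection.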
# [5] = target: 3',5'-cyclic-AMP phosphodiesterase 4B (Homo sapiens) (UniProt Q07343); assay: qHTS Assay for Inhibitors of PDE-IV (AID 607; active = well fitted activation curve with a large enough effect in the main read-out, with a control signal flat, not every such curve was filed as active; inconclusive = small, poorly fitted or top-dose-only effect, or effect the other way, or a change in a side signal); details: HEK293 ACTOne CNG channel cells, membrane potential fluorescence; activation (PDE inhibition): at 22.9 µM (top of the series)
# Method in brief: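 HEK293 ACTOne cells with CNG channel (1000/well), endogenous PDE4; membrane potential dye, compounds up to 22.9 uM final. Fluorescence Ex 535/Em 590; RO 20-1724 (100 uM final) as reference.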
# [6] = target: Cytochrome P450 2C9 (Homo sapiens) (UniProt P11712); assay: qHTS Assay for Inhibitors and Substrates of Cytochrome P450 2C9 (AID 883); details: recombinant CYP2C9, luciferin-H luminescence, 60 min; activity change, negative = inhibition: at 57.1 µM (top of the series); note: nearly all actives have a fitted effect of over 60% in size
# Method in brief: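 Signal: luciferase luminescence reporting luciferin produced by CYP2C9. Conditions: 10nM enzyme, Luciferin-H 100uM at KM, 25mM KPO4, 37C, 60 min NADPH-driven reaction. Reference: 57uM sulphaphenazole as 100% inhibition.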
# [7] = target: Cytochrome P450 2C19 (Homo sapiens) (UniProt P33261); assay: qHTS Assay for Inhibitors and Substrates of Cytochrome P450 2C19 (AID 899); note: nearly all actives have a fitted effect of over 60% in size
# Method in brief: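 Signal comes from luciferase acting on luciferin released by CYP2C19-mediated hydroxylation of Luciferin-H EGE, 10uM (KM). Assay mix: 5nM enzyme, 50mM KPO4; 60 min at 37C with NADPH regeneration. Data normalized against 57uM ketoconazole.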
# [8] = qHTS Assay for Identification of Small Molecule Agonists for Hypoxia Response Element Signaling Pathway (AID 914; active = well fitted activation curve with a large enough effect in the signal ratio, with a control signal flat, not every such curve was filed as active; inconclusive = small, poorly fitted or top-dose-only effect, or effect the other way, or a change in a side signal; the % refers to the signal ratio); details: ME-180 (cervical carcinoma) HRE-bla reporter, beta-lactamase ratio, CoCl2, 17 h; activation: hits give high values
# Method in brief: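 HRE-bla ME-180 assay for agonist-like enhancement of an EC50 CoCl2 stimulus: 17 h at 37 degrees Celsius, CCF4 for 2.5 h, ratiometric 460/530 nm signal converted to %Activity and fitted to AC50.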
# [9] = target: DNA polymerase eta (Homo sapiens) (UniProt Q9Y253); assay: qHTS for Inhibitors of Polymerase Eta: Confirmatory Assay for Cherry-picked Compounds (AID 720502); details: Pol eta primer extension, TAMRA/BHQ fluorescence, 10 min
# Method in brief: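 10 nM Pol eta + cpd, 15 min RT; start w/ 50 nM final primer/TAMRA-reporter/BHQ-2-template substrate; kinetic read 0 and 10 min, ex 525/em 598 nm. Buffer-only wells = negative control.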
# [10] = target: Tumor susceptibility gene 101 protein (Homo sapiens) (UniProt Q99816); assay: qHTS Assay for Iinhibitors of HIV-1 Budding by Blocking the Interaction of PTAP/TSG101: Hit Validation (AID 651600); note: nearly all actives have a fitted effect of over 70% in size
# Method in brief: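 Displacement of a FITC-labeled PTAP-motif peptide (50 nM) from the Tsg101 binding domain (10 uM) was monitored by fluorescence polarization after a 20 min room-temperature incubation.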
# Potency is the fitted concentration of half-maximal effect.
smiles,measurement,setting,value
CCN(C(=O)c1sc2cc(OC)ccc2c1Cl)c1ccccc1,Potency,[1],"inconclusive: 50.1 µM [activator, single point]"
same,Potency,[2],inactive
same,activation,[3],inconclusive: 36% [activator]
O=C(O)CCn1cc(/C=C2\NC(=S)N(c3ccccc3)C2=O)c(-c2ccc(Br)cc2)n1,Potency,[1],inactive
same,Potency,[2],inactive
same,activation,[3],inconclusive: 17.8% [activator]
COc1cc2cc3c4c(cc(OC)c(OC)c4c2cc1OC)CCN3C,Potency,[4],active: 0.158 µM
same,Potency,[5],"inconclusive: 6 µM [rising, single point]"
same,Potency,[6],active: 0.794 µM
same,Potency,[7],active: 0.0501 µM
same,Potency,[1],"inconclusive: 63 µM [activator, partial curve, poor fit]"
same,"activity change, negative = inhibition",[2],inconclusive: -43.2% [inhibitor] [at 114 µM]
COC(=O)C1=C(C)N(c2ccc(OC)cc2)C(C)=C(C(=O)OC)C1c1ccccc1,Potency,[1],"inconclusive: 126 µM [activator, partial curve, poor fit]"
same,Potency,[3],"inconclusive: 12.6 µM [activator, full curve, poor fit]"
COc1ccc(Oc2ncc3ncc(=O)n(Cc4ccc(F)cc4)c3n2)cc1,Potency,[5],"inconclusive: 1.26 µM [activator, full curve]"
same,Potency,[8],"inconclusive: 5.01 µM [inhibitor, single point]"
same,Potency,[1],"inconclusive: 88.9 µM [activator, partial curve, poor fit]"
same,Potency,[2],"inconclusive: 35 µM [inhibitor, partial curve]"
CCN(CC(=O)NCc1cccs1)C(=O)c1ccc(S(=O)(=O)Nc2ccccc2)cc1,Potency,[1],"inconclusive: 112 µM [activator, single point]"
same,Potency,[3],inactive
CCOc1cc(S(=O)(=O)N(CC)CC)ccc1Cl,activation,[1],"inactive: 7.51% [at 17.1 µM, percent relative to cAMP agonist control]"
same,activation,[3],inconclusive: 34.8% [activator] [at 30.8 µM]
Cc1ccc(CNC(=O)CN(c2cc(C)cc(C)c2)S(=O)(=O)c2c(C)[nH]c(=O)[nH]c2=O)cc1,Potency,[1],"inconclusive: 56.2 µM [activator, partial curve, poor fit]"
same,Potency,[2],inactive
same,Potency,[3],"inconclusive: 70.8 µM [activator, single point]"
CCC(=O)N1CCc2cc(CNC(=O)c3ccccc3C)ccc21,Potency,[1],"inconclusive: 50.1 µM [activator, single point]"
same,Potency,[2],inactive
same,Potency,[3],inactive
COc1ccc(C2=CC3=C(Br)C(=O)C(C)(OC(=O)c4cccs4)C(=O)C3=CO2)cc1 (centres undefined),Potency,[9],"inconclusive: 95.3 µM [inhibitor, single point]"
same,Potency,[1],"inconclusive: 100 µM [activator, partial curve]"
same,Potency,[2],"inconclusive: 30.1 µM [inhibitor, full curve, poor fit]"
same,Potency,[3],"inconclusive: 35.5 µM [activator, partial curve]"
O=C1CCC(C(=O)Nc2ccccc2N2CCCC2)=NN1,Potency,[1],"inconclusive: 63.1 µM [activator, partial curve, poor fit]"
same,Potency,[2],inactive
same,Potency,[3],"inconclusive: 89.1 µM [activator, single point]"
CC(C)CSC1=NSC2=NC(=O)/C(=C\c3coc4ccccc4c3=O)C(=N)N12,Potency,[10],"inconclusive: 16.3 µM [inhibitor, partial curve]"
same,Potency,[1],active: 112 µM
same,Potency,[2],"inconclusive: 95.3 µM [inhibitor, partial curve, poor fit]"
O=C1c2ccccc2S(=O)(=O)c2cc(N3CCC4(CC3)OCCO4)ccc21,Potency,[1],inactive
same,Potency,[2],active: 84.9 µM
same,Potency,[3],active: 14.1 µM
COc1ccc(Cl)cc1NC(=O)CN1c2ccccc2CC1C (centres undefined),Potency,[1],"inconclusive: 89.1 µM [activator, partial curve, poor fit]"
same,Potency,[2],"inconclusive: 33.8 µM [inhibitor, partial curve]"
same,Potency,[3],"inconclusive: 5.62 µM [activator, full curve, poor fit]"
COc1cc(SC)ccc1C(=O)NC1CCCc2ccccc21 (centres undefined),Potency,[1],"inconclusive: 100 µM [activator, partial curve]"
same,Potency,[3],"inconclusive: 3.55 µM [activator, full curve, poor fit]"
COc1cc(/C=C2\SC(=S)N(NS(=O)(=O)c3ccc(C)cc3)C2=O)ccc1O,activation,[1],"inactive: 2.55% [at 17.1 µM, percent relative to cAMP agonist control]"
same,Potency,[2],inactive
same,Potency,[3],"inconclusive: 0.158 µM [activator, full curve, poor fit]"
COC(=O)c1cc2sccc2n1Cc1ccccc1,Potency,[1],"inconclusive: 39.8 µM [activator, partial curve, poor fit]"
same,Potency,[3],active: 44.7 µM
CCc1ccc(CNC(=O)Cn2nc(C)n3c(cc4cc(C)ccc43)c2=O)cc1,Potency,[1],"inconclusive: 39.8 µM [activator, single point]"
same,outcome,[2],inactive [at 12.7 µM]
same,Potency,[3],"inconclusive: 15.8 µM [activator, full curve, poor fit]"

# 2 entries from above, as tab-separated lines.
smiles	measurement	setting	value
CCN(CC(=O)NCc1cccs1)C(=O)c1ccc(S(=O)(=O)Nc2ccccc2)cc1	Potency	[3]	inactive
O=C1CCC(C(=O)Nc2ccccc2N2CCCC2)=NN1	Potency	[1]	inconclusive: 63.1 µM [activator, partial curve, poor fit]

# From PubChem BioAssay (NCATS)
